Test results reported in publication PMC10014099.
No constants are given. Whether binding was seen depends on the method and setting. Binding seen in cells or lysates may run through a third protein. Some results given as binding are weak or reduced against the parent protein; the word gives no strength. Where a sequence is shown, tags or fusion partners need not be part of it.

The chains behind the UniProt entries cited, without tags or fusion partners.
UniProt P0DMV8: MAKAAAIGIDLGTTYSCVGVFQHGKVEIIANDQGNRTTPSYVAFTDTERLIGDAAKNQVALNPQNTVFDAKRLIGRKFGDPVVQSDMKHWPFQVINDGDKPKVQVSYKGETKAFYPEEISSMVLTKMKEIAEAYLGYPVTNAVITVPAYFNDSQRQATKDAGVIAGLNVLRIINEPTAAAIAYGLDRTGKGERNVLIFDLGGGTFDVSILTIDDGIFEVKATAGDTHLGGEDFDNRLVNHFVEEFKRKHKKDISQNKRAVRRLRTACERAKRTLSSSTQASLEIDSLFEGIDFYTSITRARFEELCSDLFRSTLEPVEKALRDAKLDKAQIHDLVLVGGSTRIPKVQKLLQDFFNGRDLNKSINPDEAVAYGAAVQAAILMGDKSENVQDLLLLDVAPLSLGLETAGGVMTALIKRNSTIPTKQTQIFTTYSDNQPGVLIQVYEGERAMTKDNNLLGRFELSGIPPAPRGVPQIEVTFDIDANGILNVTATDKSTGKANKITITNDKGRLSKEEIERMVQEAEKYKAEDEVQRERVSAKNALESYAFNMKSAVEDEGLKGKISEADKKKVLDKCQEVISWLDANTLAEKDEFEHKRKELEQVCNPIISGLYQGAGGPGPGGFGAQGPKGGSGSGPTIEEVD

Biological target: T1, Flag-Plek2 (UniProt Q9WV52)
T1 sequence: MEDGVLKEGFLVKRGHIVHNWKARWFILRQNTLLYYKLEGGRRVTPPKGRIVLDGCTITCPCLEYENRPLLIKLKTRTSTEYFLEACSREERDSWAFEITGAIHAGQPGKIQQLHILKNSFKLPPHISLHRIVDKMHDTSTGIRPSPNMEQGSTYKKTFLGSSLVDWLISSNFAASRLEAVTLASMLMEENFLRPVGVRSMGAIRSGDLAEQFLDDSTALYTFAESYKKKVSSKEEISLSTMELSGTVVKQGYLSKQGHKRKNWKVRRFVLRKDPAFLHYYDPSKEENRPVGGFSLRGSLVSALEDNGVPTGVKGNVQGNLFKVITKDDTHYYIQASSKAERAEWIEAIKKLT
Experiment: co-IP; IP with anti-FLAG magnetic beads from lysate of 293T cells transfected with Flag-Plek2, Western blot; also after 20 uM NUP-17d for 2 hours

- binding: binds
Substance: Hsp72 (from UniProt P0DMV8 1-641)
